According to US9949970B2, “Synthesis of new benzothiazole derivatives as potential anti-tubercular agents” (priority 2010, dated 2018):
Some of these results come from one statement about several compounds together. At least one compound was matched to its structure with a doubt left. Some ranges recur; such a range may be that of the whole group of compounds.

System: M. tuberculosis H37Rv
Test: Antimycobacterial activity: MIC by broth microdilution / Nitrate Reductase Assay
Assay type: cell-based, Mycobacterium tuberculosis
Settings: lowest concentration showing no colour change (NRA)

Compound | MIC
O=C(Nc1nc2ccc(NC(=O)c3ccc([N+](=O)[O-])o3)cc2s1)c1ccc(F)cc1 [Compound 6f, N2-{2-[(4-fluorobenzoyl)amino]-1,3-benzothiazol-6-yl}-5-nitrofuramide] | 0.5 to 8 µg/mL
O=C(Nc1nc2ccc(NC(=O)c3ccc([N+](=O)[O-])o3)cc2s1)c1ccc(Cl)cc1 [Compound 6g, N2-{2-[(4-chlorobenzoyl)amino]-1,3-benzothiazol-6-yl}-5-nitrofuramide] | 0.5 to 8 µg/mL
O=C(Nc1ccc2nc(NC(=O)c3ccc(F)cc3F)sc2c1)c1ccc([N+](=O)[O-])o1 [Compound 6i, N2-{2-[(2,4-difluorobenzoyl)amino]-1,3-benzothiazol-6-yl}-5-nitrofuramide] | 0.5 to 8 µg/mL
O=C(Nc1nc2ccc(NC(=O)c3ccc([N+](=O)[O-])o3)cc2s1)c1cnccn1 [Compound 6p, N2-(6-{[(5-nitro-2-furyl)carbonyl]amino}-1,3-benzothiazol-2-yl)-2-pyrazinecarboxamide] | 0.5 to 8 µg/mL
